Measured values reported in paper PMC2750754.
No constants are given. Whether binding was seen depends on the method and setting. In cells and extracts the contact can be indirect. Some binding calls cover weakened binding; strength is not graded here.

Protein sequences, listed by entry. Tags and fused reporters are not part of them. Lines headed by an entry give the natural chain unless they say otherwise; changes in a name come on top.
UniProt Q16665: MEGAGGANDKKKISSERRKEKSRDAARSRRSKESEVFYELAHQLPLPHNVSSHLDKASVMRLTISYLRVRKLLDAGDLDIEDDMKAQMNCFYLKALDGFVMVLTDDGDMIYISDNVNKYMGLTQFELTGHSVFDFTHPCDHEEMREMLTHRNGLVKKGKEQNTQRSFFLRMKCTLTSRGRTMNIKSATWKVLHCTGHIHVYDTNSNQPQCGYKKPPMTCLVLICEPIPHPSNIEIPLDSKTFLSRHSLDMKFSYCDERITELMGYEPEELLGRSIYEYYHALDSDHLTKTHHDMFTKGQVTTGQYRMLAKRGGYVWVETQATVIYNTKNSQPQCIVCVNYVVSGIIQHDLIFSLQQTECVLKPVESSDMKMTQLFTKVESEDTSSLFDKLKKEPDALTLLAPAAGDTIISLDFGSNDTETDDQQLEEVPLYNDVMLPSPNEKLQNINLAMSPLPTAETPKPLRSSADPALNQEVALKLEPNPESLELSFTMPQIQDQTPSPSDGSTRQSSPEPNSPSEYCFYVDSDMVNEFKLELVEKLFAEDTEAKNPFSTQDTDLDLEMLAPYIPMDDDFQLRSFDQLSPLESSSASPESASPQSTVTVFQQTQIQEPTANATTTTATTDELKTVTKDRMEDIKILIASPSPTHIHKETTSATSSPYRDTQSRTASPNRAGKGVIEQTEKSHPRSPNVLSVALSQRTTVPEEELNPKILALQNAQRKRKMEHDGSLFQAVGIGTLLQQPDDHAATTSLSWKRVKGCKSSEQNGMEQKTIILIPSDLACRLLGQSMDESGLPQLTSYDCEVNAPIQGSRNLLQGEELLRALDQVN
UniProt Q8N668: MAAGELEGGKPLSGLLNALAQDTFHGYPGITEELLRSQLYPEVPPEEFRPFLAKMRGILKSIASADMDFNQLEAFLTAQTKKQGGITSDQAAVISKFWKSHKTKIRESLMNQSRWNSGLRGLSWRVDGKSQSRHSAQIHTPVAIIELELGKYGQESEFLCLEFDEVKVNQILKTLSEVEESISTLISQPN
UniProt P08238: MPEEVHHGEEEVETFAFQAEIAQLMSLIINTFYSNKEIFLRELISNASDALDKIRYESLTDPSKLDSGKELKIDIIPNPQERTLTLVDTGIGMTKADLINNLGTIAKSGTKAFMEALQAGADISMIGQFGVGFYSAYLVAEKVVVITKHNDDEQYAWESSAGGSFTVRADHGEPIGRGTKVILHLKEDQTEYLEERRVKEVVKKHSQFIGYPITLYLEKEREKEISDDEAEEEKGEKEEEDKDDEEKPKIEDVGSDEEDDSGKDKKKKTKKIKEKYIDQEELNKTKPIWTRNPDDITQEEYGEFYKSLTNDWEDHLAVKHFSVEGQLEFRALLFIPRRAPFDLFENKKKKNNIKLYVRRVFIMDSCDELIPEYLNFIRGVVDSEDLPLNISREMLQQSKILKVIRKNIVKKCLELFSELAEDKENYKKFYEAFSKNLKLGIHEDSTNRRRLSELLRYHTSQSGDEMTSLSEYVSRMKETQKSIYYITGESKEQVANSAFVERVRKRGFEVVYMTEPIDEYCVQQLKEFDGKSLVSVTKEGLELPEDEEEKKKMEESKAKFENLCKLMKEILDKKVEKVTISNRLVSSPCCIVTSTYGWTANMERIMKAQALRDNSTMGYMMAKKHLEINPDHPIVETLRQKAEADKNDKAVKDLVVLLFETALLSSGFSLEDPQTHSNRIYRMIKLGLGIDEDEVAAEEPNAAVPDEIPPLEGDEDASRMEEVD

How the values were obtained:
[1] = target: Flag-HIF-1α (UniProt Q16665); test: co-IP; sequential immunoprecipitation: anti-Flag precipitates from HEK 293T lysates (cells treated with 17-AAG 2 µM, 8 hr) eluted with Flag-peptide, eluates re-precipitated with anti-HA antibody; Western blot
[2] = target: Flag-HIF-1α (P402A/P564A) (UniProt Q16665); test: co-IP; anti-Flag immunoprecipitation from whole cell lysates of transfected HEK 293T cells, Western blot; cells treated with vehicle, 17-AAG (2 µM, 8 hr) or MG132 (5 µM, 8 hr) in some panels; lysis buffer 0.4 M NaCl, 0.1% NP-40, 10 mM Tris-HCl pH 8.0, 1 mM EDTA
[3] = target: Flag-HIF-1α (UniProt Q16665); test: as above

binding [1]	binding [2]	binding [3]	Substance
binds	binds	binds	COMMD1-Ha (from UniProt Q8N668 1-190)
–	binds	binds	Ha-HSP90β (from UniProt P08238 1-724)
